Results published in patent US4518613A, “Thioalkanoyl-carnitines, process for their preparation and mucolytic pharmaceutical compositions containing same” (priority 1981, dated 1985).
For at least one compound, name, drawing or mass did not settle the structure.

Assay: Mucolytic activity in vitro: modification of human sputum density by thromboelastograph (method of Morandini et al.)
Description: The tests were carried out in vitro by using the method disclosed by Morandini et al. (Lotta contro la tubercolosi 47, n. 4, 1977). A thromboelastograph was used to follow the variations induced by the compounds of general formula (I) and acetylcysteine on the rheological properties of human sputum.

[1] = after addition of 1 ml of a 10% solution at dilution 1/30
[2] = after addition of 1 ml of a 10% solution at dilution 1/60

SMILES	Percentage drop of the tracing versus maximum peak (mucolytic activity index) [1] [Percentage]	Percentage drop of the tracing versus maximum peak (mucolytic activity index) [2] [Percentage]
CC(=O)SCCC(=O)OC(CC(=O)O)C[N+](C)(C)C (stereo not drawn) [ST-405, 3-thioacetyl propionyl-carnitine]	79	65
CC(=O)SC(C)CC(=O)OC(CC(=O)O)C[N+](C)(C)C (stereo not drawn) [ST-406, 3-thioacetyl butyryl carnitine]	88	70
CC(=O)SCCCCC(=O)OC(CC(=O)O)C[N+](C)(C)C (stereo not drawn) [ST-412, 5-thioacetyl pentanoyl-carnitine]	87	64
